Laboratory results taken from PubChem BioAssay AID540276 (National Center for Advancing Translational Sciences (NCATS), 2011).
Where “and” joins values, the source holds several entries; their conditions need not be identical. Equal entries are not always repeated. Among all 300,000 compounds or so, about 5,400 (1.8%) were called active. This list was built around the results that the source calls inconclusive (neither active nor inactive); the mix of calls is not that of the screen. The call rests on the fitted dose curve; tested in HEK293 cells. Potencies beside an inconclusive call are fits to weak or partial responses and may not hold up.

Experiment: qHTS for inhibitors of binding or entry into cells for Marburg Virus
Settings: Marburg virus pseudotyped entry inhibition, cell reporter; series mostly up to 37.8 µM
Potency means the concentration at half of the fitted maximal effect.

Row | SMILES | Potency
1 | CCOC(=O)c1sc(=N)n(-c2ccc(OC)cc2)c1C | inactive
2 | CCN(CC)C(=O)c1c2c(nc3ccccc13)-c1ccccc1CC2 | inconclusive: 3.66 µM [inhibitor, full curve, poor fit]
3 | CN(C)C(=Nc1ccccc1)P(=S)(N(C)C)N(C)C | inactive
4 | CCCC(=O)O[C@]1(C(=O)CCl)[C@@H](C)C[C@H]2[C@@H]3CCC4=CC(=O)C=C[C@]4(C)[C@@]3(F)C(=O)C[C@@]21C | inconclusive: 32.6 µM [inhibitor, single point]
5 | COc1ccc(CN2CCN(Cc3ccccc3)C(CCO)C2)cc1OC (configuration not stated) | inactive
6 | COc1cccc(COC(=O)CCNC(=O)c2ccc(Br)cc2)c1OC | inactive
7 | CC(=O)c1ccc(N2CCN(C(=S)Nc3ccc(Oc4ccccc4)cc3)CC2)cc1 | inconclusive: 10 µM [inhibitor, partial curve, poor fit]
8 | CCOC(=O)C1=C(c2ccccc2)NC(=O)NC1c1cc(Cl)c(O)c(OC)c1 (configuration not stated) | inconclusive: 35.5 µM [inhibitor, partial curve, poor fit]
9 | COc1ccc(CN(C(=S)Nc2ccccc2)C2CC(=O)N(c3ccc(F)cc3)C2=O)cc1 (configuration not stated) | inconclusive: 0.1 µM [inhibitor, full curve, poor fit]
10 | CN1CCN(c2ccc(NC(=O)Cc3ccccc3)cc2)CC1 | inactive
11 | CN(C)C(=O)c1cc(Cl)ccc1Sc1cc(Cl)ccc1Cl | inactive
12 | O=C(O)C1CN(c2nc(Cl)ccc2[N+](=O)[O-])C1 | inconclusive: 11.2 µM [activator, partial curve]
13 | COc1cc(-n2c(=O)c3ccccc3n(CC(=O)OCc3ccccc3)c2=O)cc(OC)c1OC | inactive
14 | CO/N=C\c1cc(C(=O)c2ccc(Cl)cc2Cl)cn1C | inconclusive: 35.5 µM [inhibitor, partial curve, poor fit]
15 | COc1cc(CN2CCCC(C)C2)ccc1OCc1ccccc1 (configuration not stated) | inconclusive: 7.08 µM [inhibitor, partial curve, poor fit]
16 | CCOC(=O)/C(=N/Nc1ccccc1)c1csc(Nc2ccccc2)n1 | inactive
17 | O=C(Cc1ccsc1)NNC(=O)c1ccccc1O | inactive
18 | CCCCn1cnc2c(Sc3c([N+](=O)[O-])ncn3C)nc(N)nc21 | inconclusive: 10 µM [inhibitor, partial curve, poor fit]
19 | Cc1ccc2nc(N3CCC(C(=O)N4CCC5(CC4)OCCO5)CC3)sc2c1 | active: 7.94 µM
20 | CC(C)CNC(=O)CCCSc1nc2ccccc2[nH]1 | inconclusive: 6.31 µM [inhibitor, full curve, poor fit]
21 | O=C(CN1CCN(c2ccccc2)CC1)Nc1ccc2c(c1)CCC2 | inconclusive: 35.5 µM [activator, partial curve, poor fit]
22 | Cn1nnnc1SCCNCc1ccccc1OCc1ccc(Cl)cc1 | inconclusive: 20.6 µM [inhibitor, single point]
23 | Cc1ccc(C(=O)N/C(=C\c2ccc([N+](=O)[O-])cc2)C(=O)NCCc2ccccc2)cc1 | inactive
24 | COc1c(S(=O)(=O)N2CCCCC2)ccc2c(S(=O)(=O)N3CCCCC3)cccc12 | inactive

Row | SMILES | Potency
25 | O=C1C[C@H](c2ccccc2)[C@@H](c2ccc(Br)cc2)O1 | inactive
26 | NNc1nc2ccccc2nc1C(F)(F)F | inactive
27 | COc1ccc(-c2c(-c3ccc(OCC(=O)NN)cc3O)n[nH]c2C)cc1 | inactive
28 | Cc1ccc(S(=O)(=O)N2CCN(C(=O)CSc3nnc(C)c(=O)[nH]3)CC2)cc1 | inactive
29 | O=C(N1CCOCC1)C(F)(F)C(F)(F)C(F)(F)C(F)(F)C(=O)N1CCOCC1 | inconclusive: 6.51 µM [inhibitor, partial curve, poor fit]
30 | O=S(=O)(NCCc1ccc(F)cc1)c1cccc2cccnc12 | inconclusive: 15.8 µM [inhibitor, single point]
31 | O=C(/C=C/c1ccc(F)cc1)NCc1cccs1 | inactive
32 | CC[n+]1c(/C=C2\C=C(C)CC(C)(C)C2)sc2ccccc21 | inactive and inconclusive: 18.3 µM [inhibitor, single point]
33 | CC1(C)Cn2c(nnc2-c2cccc(O)c2)S1 | inactive
34 | O=C(c1ccccc1)c1cnc(-c2ccccc2)s1 | inconclusive: 12.6 µM [inhibitor, single point]
35 | Cc1cc2nc(-c3ccc(Br)cc3)cc(C(F)(F)F)n2n1 | inactive
36 | CCc1nc2c(sc3nc4c(cc32)COC(C)(C)C4)c(=O)n1Cc1ccco1 | inconclusive: 17.8 µM [inhibitor, single point]
37 | CCc1nnc(NC(=O)c2oc3ccc(Br)cc3c2C)s1 | inconclusive: 0.562 µM [activator, full curve, poor fit]
38 | COc1ccc(S(=O)(=O)N(C)c2ccc(C(=O)NCc3ccncc3)cc2)cc1 | inactive
39 | CC1CCCC(C)N1C(=O)COc1ccc(C(=O)N/N=C/c2ccc(C(=O)O)cc2)cc1 (configuration not stated) | inactive
40 | CCOC(=O)C1CCN(C(=O)Cn2nc(C)n3c(cc4cc(C)ccc43)c2=O)CC1 | inconclusive: 3.55 µM [inhibitor, single point]
41 | Cc1cccc(NS(=O)(=O)c2cc(C(=O)N3CCOCC3)ccc2Cl)c1 | inconclusive: 0.316 µM [activator, full curve, poor fit]
42 | CC1=Nc2cccc3cccc(c23)N1 | inconclusive: 2.91 µM [inhibitor, full curve]
43 | Nc1nc(NCc2ccco2)nc(N2CCCCCC2)c1[N+](=O)[O-] | inconclusive: 8.2 µM [inhibitor, partial curve]
44 | COc1cccc(C2C(C(=O)c3sc(C)nc3C)=C(O)C(=O)N2CCN2CCOCC2)c1 (configuration not stated) | inactive
45 | COc1ccc(S(=O)(=O)Nc2ccc(-c3ccc4nncn4n3)cc2)c(OC)c1 | inconclusive: 14.1 µM [inhibitor, single point]
46 | CCOC(=O)c1nc(C)[nH]c1C(=O)OCC | inconclusive: 6.51 µM [inhibitor, single point]
47 | COc1ccc(NC2=Nc3cccc4cccc2c34)cc1 | inconclusive: 25.9 µM [activator, single point]

Laid out differently: results already given.
Cc1ccc(C(=O)N/C(=C\c2ccc([N+](=O)[O-])cc2)C(=O)NCCc2ccccc2)cc1
  Potency: inactive
CC1=Nc2cccc3cccc(c23)N1
  Potency: inconclusive: 2.91 µM [inhibitor, full curve]

2 records drawn at random from those above, as already listed:
Row | SMILES | Potency
38 | COc1ccc(S(=O)(=O)N(C)c2ccc(C(=O)NCc3ccncc3)cc2)cc1 | inactive
28 | Cc1ccc(S(=O)(=O)N2CCN(C(=O)CSc3nnc(C)c(=O)[nH]3)CC2)cc1 | inactive
